PMC8649873
Changes are numbered by the printed parent chain. No constants are given. Whether binding was seen depends on the method and setting. In cells and extracts the contact can be indirect. Some results given as binding are weak or reduced against the parent protein; the word gives no strength. For part of these data: Sequences can lack the tags named with a protein.

The chains behind the UniProt entries cited, without tags or fusion partners.
UniProt O75396: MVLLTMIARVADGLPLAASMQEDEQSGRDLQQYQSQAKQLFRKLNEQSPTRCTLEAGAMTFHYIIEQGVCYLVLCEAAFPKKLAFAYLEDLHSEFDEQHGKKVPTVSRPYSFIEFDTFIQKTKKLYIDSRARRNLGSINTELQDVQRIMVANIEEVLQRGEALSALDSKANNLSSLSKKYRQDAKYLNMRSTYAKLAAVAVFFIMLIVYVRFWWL

Key:
[1] = biological target: T1, HA-tagged BET1 Ile51Ser (human) (UniProt O15155); assay: co-IP; HA-tagged BET1 constructs (GFP as control) expressed in HEK293 cells; lysis in EBC buffer (50 mM Tris-HCl, 120 mM NaCl, 0.5% NP-40, 5 mM EDTA); anti-HA sepharose beads 2 h at 4°C; immunoblot of endogenous partners
T1 sequence: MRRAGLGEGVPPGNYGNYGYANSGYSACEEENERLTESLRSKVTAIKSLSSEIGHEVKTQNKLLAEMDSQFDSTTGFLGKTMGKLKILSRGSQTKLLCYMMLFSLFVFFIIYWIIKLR

[2] = biological target: T2, HA-tagged wild-type BET1 (human) (UniProt O15155); assay: as above
T2 sequence: T1 sequence with S51I

[3] = biological target: T3, HA-tagged BET1 Asp68His (human) (UniProt O15155); assay: as above
T3 sequence: T1 sequence with S51I, D68H

[4] = biological target: T4, BET1 (endogenous) (human (endogenous in HEK293T)) (UniProt O15155); assay: co-IP; endogenous: HEK293T (legend; HEK293 in the methods) lysate in EBC buffer with anti-BET1 antibody overnight at 4°C, magnetic protein A/G beads; controls lysis buffer without cells and lysate without antibody; immunoblot
T4 sequence: T1 sequence with S51I

Measured: binding

SEC22b (from UniProt O75396 1-215)
binds: [1] | [2] | [3]

B1: ERGIC-53 (protein, UniProt P49257 31-510)
chain: DGVGGDPAVALPHRRFEYKYSFKGPHLVQSDGTVPFWAHAGNAIPSSDQIRVAPSLKSQRGSVWTKTKAAFENWEVEVTFRVTGRGRIGADGLAIWYAENQGLEGPVFGSADLWNGVGIFFDSFDNDGKKNNPAIVIIGNNGQIHYDHQNDGASQALASCQRDFRNKPYPVRAKITYYQNTLTVMINNGFTPDKNDYEFCAKVENMIIPAQGHFGISAATGGLADDHDVLSFLTFQLTEPGKEPPTPDKEISEKEKEKYQEEFEHFQQELDKKKEEFQKGHPDLQGQPAEEIFESVGDRELRQVFEGQNRIHLEIKQLNRQLDMILDEQRRYVSSLTEEISKRGAGMPGQHGQITQQELDTVVKTQHEILRQVNEMKNSMSETVRLVSGMQHPGSAGGVYETTQHFIDIKEHLHIVKRDIDNLVQRNMPSNEKPKCPELPPFPSCLSTVHFIIFVVVQTVLFIGYIMYRSQQEAAAKKFF
binds: [2] | [3] | [4]

B2: GOSR2 (protein, UniProt O14653 1-212)
chain: MDPLFQQTHKQVHEIQSCMGRLETADKQSVHIVENEIQASIDQIFSRLERLEILSSKEPPNKRQNARLRVDQLKYDVQHLQTALRNFQHRRHAREQQERQREELLSRTFTTNDSDTTIPMDESLQFNSSLQKVHNGMDDLILDGHNILDGLRTQRLTLKGTQKKILDIANMLGLSNTVMRLIEKRAFQDKYFMIGGMLLTCVVMFLVVQYLT
binds: [1] | [2] | [3]

B3: Syntaxin-5 (protein, UniProt Q13190 1-355)
chain: MIPRKRYGSKNTDQGVYLGLSKTQVLSPATAGSSSSDIAPLPPPVTLVPPPPDTMSCRDRTQEFLSACKSLQTRQNGIQTNKPALRAVRQRSEFTLMAKRIGKDLSNTFAKLEKLTILAKRKSLFDDKAVEIEELTYIIKQDINSLNKQIAQLQDFVRAKGSQSGRHLQTHSNTIVVSLQSKLASMSNDFKSVLEVRTENLKQQRSRREQFSRAPVSALPLAPNHLGGGAVVLGAESHASKDVAIDMMDSRTSQQLQLIDEQDSYIQSRADTMQNIESTIVELGSIFQQLAHMVKEQEETIQRIDENVLGAQLDVEAAHSEILKYFQSVTSNRWLMVKIFLILIVFFIIFVVFLA
binds: [1] | [2] | [3]
